From patent US20160340382
For at least one entry, the source does not settle the construct or the ends of the probe. Where a protein sequence is shown, tags need not be part of it.

Target: T1, RNase A (UniProt P61823)
T1 sequence (looked up, limits assumed): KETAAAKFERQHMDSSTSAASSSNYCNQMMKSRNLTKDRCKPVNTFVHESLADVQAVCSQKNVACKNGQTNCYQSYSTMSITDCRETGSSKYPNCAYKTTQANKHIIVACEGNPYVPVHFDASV
Assay: enzyme reaction in vitro
Settings: purified native protein

[1] = rU, other positions DNA, CITED Kelemen et al 1999, kcat/Km, label: 5'-6-FAM, 3'-6-TAMRA

With AAAUAAAA [Reference substrate D] the “activity on this sequence” value [1] was “active”.
For “AAAUAAAATTTTTTTTTTTTTTT [RNase A substrate D (microarray)]”, the “activity on this sequence” value (single rU at position 4, all other positions DNA, 3' end tethered to glass [rU at 4, all other positions DNA, 3' end tethered to glass], 100 nM RNase A, 0.1 M MES, loss of Cy3 on array normalized to T-for-U DNA control, label: 5'-Cy3, letters built from the parent sequence and the stated change) was “active”.
AAUAAA [Reference substrate C] was tested, and the “activity on this sequence” value [1] was “active”.
With “AAUAAATTTTTTTTTTTTTTT [RNase A substrate C (microarray)]” the “activity on this sequence” value (single rU at position 3, all other positions DNA, 3' end tethered to glass [rU at 3, all other positions DNA, 3' end tethered to glass], 100 nM RNase A, 0.1 M MES, loss of Cy3 on array normalized to T-for-U DNA control, label: 5'-Cy3, letters built from the parent sequence and the stated change) was “active”.
In the case of “AUAATTTTTTTTTTTTTTT [RNase A substrate B (microarray)]”, the “activity on this sequence” value (single rU at position 2, all other positions DNA, 3' end tethered to glass [rU at 2, all other positions DNA, 3' end tethered to glass], 100 nM RNase A, 0.1 M MES, loss of Cy3 on array normalized to T-for-U DNA control, label: 5'-Cy3, letters built from the parent sequence and the stated change) is reported as “active”.
“UATTTTTTTTTTTTTTT [RNase A substrate A (microarray)]” was tested, and the “activity on this sequence” value (single rU at position 1, all other positions DNA, 3' end tethered to glass, 100 nM RNase A, 0.1 M MES, loss of Cy3 on array normalized to T-for-U DNA control, label: 5'-Cy3) was “active”.
